According to patent US20030176339A1:
These are yes or no findings as the source states them, for the method shown. In cells and extracts the contact can be indirect. Some results given as binding are weak or reduced against the parent protein; the word gives no strength.

The chains behind the UniProt entries cited, without tags or fusion partners. Where a name states a change or a piece, a line headed by the entry shows the natural chain unless it says otherwise. Residues count along the entry.
UniProt P02647, residues 25-267: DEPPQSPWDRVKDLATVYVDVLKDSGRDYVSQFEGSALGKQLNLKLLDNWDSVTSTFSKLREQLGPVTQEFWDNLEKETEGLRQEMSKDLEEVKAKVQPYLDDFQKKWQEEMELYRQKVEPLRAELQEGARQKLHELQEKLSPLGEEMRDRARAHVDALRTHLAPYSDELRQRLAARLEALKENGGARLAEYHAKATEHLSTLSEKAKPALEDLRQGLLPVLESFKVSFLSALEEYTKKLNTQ
UniProt O60494: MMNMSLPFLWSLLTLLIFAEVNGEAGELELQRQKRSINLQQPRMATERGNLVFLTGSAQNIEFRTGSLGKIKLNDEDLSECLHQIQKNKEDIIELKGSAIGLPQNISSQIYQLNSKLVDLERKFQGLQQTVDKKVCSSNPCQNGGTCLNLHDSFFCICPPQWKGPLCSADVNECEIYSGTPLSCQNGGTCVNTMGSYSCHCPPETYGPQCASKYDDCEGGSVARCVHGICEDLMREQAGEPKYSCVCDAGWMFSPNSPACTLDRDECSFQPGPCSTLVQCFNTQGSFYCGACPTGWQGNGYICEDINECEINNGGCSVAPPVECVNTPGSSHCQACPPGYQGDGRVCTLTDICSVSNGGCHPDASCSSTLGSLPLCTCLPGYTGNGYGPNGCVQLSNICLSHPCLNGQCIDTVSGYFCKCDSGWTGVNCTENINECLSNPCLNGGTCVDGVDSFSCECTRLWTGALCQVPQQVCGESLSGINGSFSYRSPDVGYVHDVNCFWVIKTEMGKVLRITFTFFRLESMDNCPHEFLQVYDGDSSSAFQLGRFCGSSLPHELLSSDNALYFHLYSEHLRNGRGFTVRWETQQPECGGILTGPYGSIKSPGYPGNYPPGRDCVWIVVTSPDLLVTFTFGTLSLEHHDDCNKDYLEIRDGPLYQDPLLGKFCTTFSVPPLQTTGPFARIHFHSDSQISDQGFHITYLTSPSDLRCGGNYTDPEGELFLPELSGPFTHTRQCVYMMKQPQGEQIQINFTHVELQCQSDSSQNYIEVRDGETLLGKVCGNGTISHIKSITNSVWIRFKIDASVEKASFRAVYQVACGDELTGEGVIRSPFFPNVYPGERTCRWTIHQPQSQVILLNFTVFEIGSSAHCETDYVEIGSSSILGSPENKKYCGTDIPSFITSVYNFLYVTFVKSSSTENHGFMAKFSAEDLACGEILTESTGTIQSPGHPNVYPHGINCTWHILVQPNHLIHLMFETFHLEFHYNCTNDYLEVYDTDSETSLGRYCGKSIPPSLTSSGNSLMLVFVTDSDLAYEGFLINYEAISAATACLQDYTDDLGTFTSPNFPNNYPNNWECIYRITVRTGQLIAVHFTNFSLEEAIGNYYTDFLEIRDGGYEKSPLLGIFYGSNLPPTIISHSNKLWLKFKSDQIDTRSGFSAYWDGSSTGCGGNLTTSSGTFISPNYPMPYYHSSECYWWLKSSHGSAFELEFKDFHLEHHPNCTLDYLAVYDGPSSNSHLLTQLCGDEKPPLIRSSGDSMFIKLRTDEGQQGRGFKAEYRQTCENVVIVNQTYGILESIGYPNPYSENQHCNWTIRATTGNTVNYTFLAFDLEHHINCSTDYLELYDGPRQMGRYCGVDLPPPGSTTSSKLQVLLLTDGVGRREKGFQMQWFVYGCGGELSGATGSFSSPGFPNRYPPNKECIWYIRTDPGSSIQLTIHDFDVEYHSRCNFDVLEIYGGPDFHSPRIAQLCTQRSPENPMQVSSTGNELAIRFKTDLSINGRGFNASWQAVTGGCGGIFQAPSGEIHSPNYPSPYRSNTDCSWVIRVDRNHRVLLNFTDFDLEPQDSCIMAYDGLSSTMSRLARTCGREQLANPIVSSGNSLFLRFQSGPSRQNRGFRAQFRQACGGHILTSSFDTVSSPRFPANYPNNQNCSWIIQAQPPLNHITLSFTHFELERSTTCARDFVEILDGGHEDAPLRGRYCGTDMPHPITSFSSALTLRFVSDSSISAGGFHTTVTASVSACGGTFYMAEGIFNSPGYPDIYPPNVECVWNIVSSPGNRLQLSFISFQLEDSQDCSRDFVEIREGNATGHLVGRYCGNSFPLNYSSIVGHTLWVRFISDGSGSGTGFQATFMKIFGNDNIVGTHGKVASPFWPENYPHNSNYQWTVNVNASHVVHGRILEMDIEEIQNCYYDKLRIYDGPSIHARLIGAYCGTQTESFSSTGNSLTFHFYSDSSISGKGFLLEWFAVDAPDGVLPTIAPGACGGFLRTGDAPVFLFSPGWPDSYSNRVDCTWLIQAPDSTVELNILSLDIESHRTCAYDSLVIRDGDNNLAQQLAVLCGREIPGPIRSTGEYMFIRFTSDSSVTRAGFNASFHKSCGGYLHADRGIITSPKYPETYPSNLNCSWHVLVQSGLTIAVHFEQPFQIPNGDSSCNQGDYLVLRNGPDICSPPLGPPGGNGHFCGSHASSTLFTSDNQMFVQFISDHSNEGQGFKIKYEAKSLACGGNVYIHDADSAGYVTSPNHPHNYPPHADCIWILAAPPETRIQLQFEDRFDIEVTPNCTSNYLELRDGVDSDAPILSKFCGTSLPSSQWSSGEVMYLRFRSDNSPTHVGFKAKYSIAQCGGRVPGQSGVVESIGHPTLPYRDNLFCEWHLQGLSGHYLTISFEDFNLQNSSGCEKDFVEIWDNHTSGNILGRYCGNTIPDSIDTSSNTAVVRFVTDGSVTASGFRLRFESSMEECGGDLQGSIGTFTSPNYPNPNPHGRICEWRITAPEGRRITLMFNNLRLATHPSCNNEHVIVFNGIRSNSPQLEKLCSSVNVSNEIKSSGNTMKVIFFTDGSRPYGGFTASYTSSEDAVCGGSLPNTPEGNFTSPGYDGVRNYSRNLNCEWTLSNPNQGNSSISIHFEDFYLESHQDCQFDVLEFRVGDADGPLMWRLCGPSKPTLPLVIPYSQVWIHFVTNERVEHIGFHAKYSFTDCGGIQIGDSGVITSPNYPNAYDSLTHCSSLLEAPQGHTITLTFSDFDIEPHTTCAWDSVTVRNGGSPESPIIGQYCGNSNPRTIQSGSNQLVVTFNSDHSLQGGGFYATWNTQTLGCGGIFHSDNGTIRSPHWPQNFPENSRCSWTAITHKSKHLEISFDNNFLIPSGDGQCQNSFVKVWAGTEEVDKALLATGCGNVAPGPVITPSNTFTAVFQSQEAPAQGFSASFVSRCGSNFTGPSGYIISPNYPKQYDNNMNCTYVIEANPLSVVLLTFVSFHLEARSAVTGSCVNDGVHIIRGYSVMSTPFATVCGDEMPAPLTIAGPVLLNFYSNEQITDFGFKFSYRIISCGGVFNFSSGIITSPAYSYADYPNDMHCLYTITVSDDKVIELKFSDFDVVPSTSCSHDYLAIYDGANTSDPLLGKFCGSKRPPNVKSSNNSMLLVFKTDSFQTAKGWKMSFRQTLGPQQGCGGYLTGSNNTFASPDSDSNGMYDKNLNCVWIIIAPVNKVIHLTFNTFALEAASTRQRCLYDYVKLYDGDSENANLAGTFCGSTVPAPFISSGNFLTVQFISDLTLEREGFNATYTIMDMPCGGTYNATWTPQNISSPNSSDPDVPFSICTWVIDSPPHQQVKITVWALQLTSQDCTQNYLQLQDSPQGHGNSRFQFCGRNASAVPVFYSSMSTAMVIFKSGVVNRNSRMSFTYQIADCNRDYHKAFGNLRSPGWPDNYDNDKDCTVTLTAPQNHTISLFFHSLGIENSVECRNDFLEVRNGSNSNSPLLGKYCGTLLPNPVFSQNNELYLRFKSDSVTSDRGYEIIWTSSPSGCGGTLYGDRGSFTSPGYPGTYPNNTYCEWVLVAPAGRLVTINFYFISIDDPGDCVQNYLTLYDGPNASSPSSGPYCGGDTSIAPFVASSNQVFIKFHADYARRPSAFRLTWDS

Target: human apolipoprotein A-I (Sigma), cross-linked to CNBr-activated Sepharose resin (human) (UniProt P02647)
Assay: pull-down of insect cell supernatant on apo A-I Sepharose, EDTA elution, anti-Myc Western blot

- binding: binds
Substance: CUB9-CUB14 fragment peptide of human cubilin with C-terminal Myc tag and His tag, expressed in HiFive insect cells (from UniProt O60494 1358-2091) (receptor)
